Measured values taken from PubChem BioAssay AID1487 (National Center for Advancing Translational Sciences (NCATS), 2009).
The other results are listed elsewhere or left out. Shown are side measurements of this screen, not its main read-out; they come without a call. Most of these compounds were active or inconclusive in the main read-out, so they are no random draw. Words in brackets tell the shape of the fitted curve; partial curves, single points and poor fits give uncertain potencies.

Assay: qHTS Assay for Modulators of Lamin A Splicing
Settings: HeLa LMNA splicing GFP/RFP minigene ratio, 48 h
Summary of the method: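 Read-out is the ratio of GFP to DsRed2 object intensity, acquired by 488 nm laser-scanning cytometry on HeLa lamin A-EGFP minigene reporter cells. Compound incubation 48 hrs at 37 °C in Opti-MEM with 2% FBS; DMSO 0.5% final.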

[1] = measured here: RFP viability control channel
[2] = measured here: GFP splicing reporter channel

SMILES	AC50 [1]	AC50 [2]
COc1ccc2nc(SCC(=O)NC3CCCc4ccccc43)[nH]c2c1 (stereo not drawn)	22.4 µM [rising, single point]	–
O=C(Cn1cnc2ccccc21)N1CCN(S(=O)(=O)c2ccccc2)CC1	0.708 µM [rising, full curve, poor fit]	–
C/C(=N\NC(=O)c1cccc(F)c1)c1ccc(Br)s1	35.5 µM [falling, single point]	35.5 µM [falling, single point]
COc1ccc2nc(N(Cc3cccnc3)C(=O)C3COc4ccccc4O3)sc2c1 (stereo not drawn)	–	0.0141 µM [rising, full curve, poor fit]
CC1=CC2=NC(=O)/C(=C\c3cccn3CCOc3cc(C)ccc3C)C(=N)N2O1	1.26 µM [rising, partial curve, poor fit]	–
COc1ccc(N2CCN(S(=O)(=O)CCNC(=O)C3CC(=O)N(c4ccccc4)C3)CC2)cc1 (stereo not drawn)	–	0.0112 µM [falling, full curve, poor fit]
CC(=O)c1c(C)oc2c1C(=O)c1ccccc1C2=O	31.6 µM [rising, single point]	3.16 µM [falling, single point]
CN(C)CC[C@@H](c1ccc(Br)cc1)c1ccccn1	–	35.5 µM [falling, single point]
O=C(Nc1ccc(Cc2ccncc2)cc1)c1ccc(Br)o1	14.1 µM [rising, single point]	–
NC(=S)N/N=C/c1ccc(-c2ccccc2)o1	35.5 µM [falling, single point]	–
COc1ccc(-c2c(C(C)=O)c(C)n(C)c2C)cc1	22.4 µM [rising, single point]	10 µM [rising, partial curve, poor fit]
O=C(O)CCc1ccc(-c2ccccc2)n1NC(=O)c1cccs1	31.6 µM [rising, single point]	–
CCN(CC(=O)NC1CCS(=O)(=O)C1)C(=O)COc1ccccc1-c1ccccc1 (stereo not drawn)	–	17.8 µM [rising, single point]
Cc1[nH]c2ccccc2c1/C=N/Nc1nc(Nc2ccc(F)cc2)nc(N2CCOCC2)n1	2 µM [rising, full curve]	–
O=C(CCN1C(=O)C2C3CCC(C3)C2C1=O)Nc1ccccc1C(F)(F)F (stereo not drawn)	–	0.02 µM [falling, full curve, poor fit]
Cc1coc2c(O)cc3c(c12)OC1(N2CCCCC2)C(=O)NCCCC31 (stereo not drawn)	8.91 µM [rising, single point]	–
Cn1c(CCN2CCCCC2)nc2cc(NS(=O)(=O)c3ccccc3)ccc21	20 µM [rising, single point]	–
CN(c1ccccc1)S(=O)(=O)c1cccc(NC(=O)CSc2ncn[nH]2)c1	8.91 µM [rising, partial curve, poor fit]	–

Taken from the listing (2 entries):
SMILES	AC50 [1]	AC50 [2]
COc1ccc(N2CCN(S(=O)(=O)CCNC(=O)C3CC(=O)N(c4ccccc4)C3)CC2)cc1 (stereo not drawn)	–	0.0112 µM [falling, full curve, poor fit]
CC(=O)c1c(C)oc2c1C(=O)c1ccccc1C2=O	31.6 µM [rising, single point]	3.16 µM [falling, single point]

More structures follow:

SMILES	AC50 [1]	AC50 [2]
O=C1c2ccccc2-c2onc3ccc(NCCCn4ccnc4)c1c23	25.1 µM [rising, single point]	14.1 µM [rising, single point]
O=C(Nc1ccncc1)c1ccc(NS(=O)(=O)c2cccc(F)c2)cc1	15.8 µM [rising, partial curve]	11.2 µM [rising, partial curve]
O=C(O)CCn1cc(/C=C\C(=O)c2ccc(Cl)cc2)c(-c2cccc(Br)c2)n1	2.51 µM [rising, partial curve]	35.5 µM [falling, single point]
Cc1cc(Nc2ccccc2C)nc(-n2nc(C)cc2C)n1	–	0.708 µM [rising, single point]
COc1cc2c(cc1NC(=O)CSc1cccc[n+]1[O-])oc1ccccc12	14.1 µM [rising, single point]	12.6 µM [rising, single point]
COCCn1c(=O)c(CCc2ccccc2)nc2cnc(OCc3ccccc3)nc21	35.5 µM [falling, single point]	35.5 µM [falling, single point]
O=C(N/N=C/c1cc([N+](=O)[O-])ccc1O)/C(=C\c1cccs1)NC(=O)c1ccccc1	28.2 µM [rising, single point]	–
Cc1noc(C)c1-c1nccc(N2CCN(C)CC2)n1	–	17.8 µM [falling, single point]
Cc1ccccc1NS(=O)(=O)c1ccc2[nH]cc(C(=O)NC(C)c3ccccc3)c(=O)c2c1 (stereo not drawn)	0.0501 µM [falling, full curve]	0.0398 µM [falling, full curve]
COC(=O)[C@@]1(Cc2ccccc2)[C@@H]2C(=CC(=O)[C@H]2CC(=O)C(=O)N(C)C)CN1C(=O)c1ccccc1	12.6 µM [falling, partial curve, poor fit]	–
CCOC(=O)N1CCN(S(=O)(=O)c2ccc(C)c(C)c2C)CC1	11.2 µM [rising, partial curve, poor fit]	–
O=C(Nc1ccc(-c2noc(CCc3ccccc3)n2)cc1)c1cccnc1	35.5 µM [rising, single point]	–
CCNc1ncc2nc(-c3ccc(F)cc3)c(=O)n(CCc3ccccc3)c2n1	–	14.1 µM [falling, partial curve]
COc1cc(Cl)c(C)cc1NC(C)C(=O)Nc1cc(C(F)(F)F)ccc1N1CCOCC1 (stereo not drawn)	22.4 µM [rising, partial curve]	15.8 µM [rising, single point]
Cc1cccc(Nc2cc(C)c3c(O)cccc3n2)c1C	11.2 µM [rising, partial curve]	3.55 µM [rising, full curve]
CCC(=O)N1CCN(c2ccccc2NC(=O)COc2cc(C)ccc2C(C)C)CC1	22.4 µM [rising, single point]	–
CCN(CC)c1ccc(Nc2nc(N3CCOCC3)c3ccccc3n2)cc1	12.6 µM [rising, partial curve]	15.8 µM [rising, single point]
C=C(C)C1CC=C(C(=O)O)CC1 (stereo not drawn)	0.00447 µM [falling, full curve, poor fit]	–
